This test deals with RXRα (UniProt P19793). Nature of the test: SPR; Biacore 8K+; PD-1 or RXRα immobilised on CM5 by amine coupling (about 1500 RU), 25 °C, HBS-EP pH 7.4; PDL1, PPARα or FXR injected in series, without and with 5 µM cyc2-1 or cyc2-3; both purified.

Chains of the proteins cited; added tags and fusions are not shown.
UniProt P19793: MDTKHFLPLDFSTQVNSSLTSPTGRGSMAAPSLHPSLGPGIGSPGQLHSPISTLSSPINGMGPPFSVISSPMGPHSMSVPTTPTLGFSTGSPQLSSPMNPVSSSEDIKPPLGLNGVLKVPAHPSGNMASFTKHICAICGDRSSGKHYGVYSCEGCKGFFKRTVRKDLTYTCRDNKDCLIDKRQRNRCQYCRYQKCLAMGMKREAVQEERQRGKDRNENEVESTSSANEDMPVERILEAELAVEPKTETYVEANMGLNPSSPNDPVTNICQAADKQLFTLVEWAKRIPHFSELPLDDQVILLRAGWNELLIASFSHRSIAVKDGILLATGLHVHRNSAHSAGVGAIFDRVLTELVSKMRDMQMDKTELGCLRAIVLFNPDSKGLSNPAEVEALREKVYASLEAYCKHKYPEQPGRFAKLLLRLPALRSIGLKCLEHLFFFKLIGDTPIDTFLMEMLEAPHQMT

No constants are given. Whether binding was seen depends on the method and setting. Some entries that bind do so weakly or less than the wild type.

B1: FXR (receptor, UniProt Q96RI1 1-486)
chain: MVMQFQGLENPIQISPHCSCTPSGFFMEMMSMKPAKGVLTEQVAGPLGQNLEVEPYSQYSNVQFPQVQPQISSSSYYSNLGFYPQQPEEWYSPGIYELRRMPAETLYQGETEVAEMPVTKKPRMGASAGRIKGDELCVVCGDRASGYHYNALTCEGCKGFFRRSITKNAVYKCKNGGNCVMDMYMRRKCQECRLRKCKEMGMLAECMYTGLLTEIQCKSKRLRKNVKQHADQTVNEDSEGRDLRQVTSTTKSCREKTELTPDQQTLLHFIMDSYNKQRMPQEITNKILKEEFSAEENFLILTEMATNHVQVLVEFTKKLPGFQTLDHEDQIALLKGSAVEAMFLRSAEIFNKKLPSGHSDLLEERIRNSGISDEYITPMFSFYKSIGELKMTQEEYALLTAIVILSPDRQYIKDREAVEKLQEPLLDVLQKLCKIHQPENPQHFACLLGRLTELRTFNHHHAEMLMSWRVNDHKFTPLLCEIWDVQ
On to B1, for which the binding entry is given as “binds”.

The record behind these values is article PMC10563079 (Molecules, 2023).
